Laboratory results reported in doi:10.1101/2025.09.28.679027.
No constants are given. Whether binding was seen depends on the method and setting. Binding seen in cells or lysates may run through a third protein. Some entries that bind do so weakly or less than the wild type. Tags and fused reporters may be left off the sequences shown.

By UniProt entry, the sequences of proteins in these tests, tags left out.
UniProt Q9BVG3: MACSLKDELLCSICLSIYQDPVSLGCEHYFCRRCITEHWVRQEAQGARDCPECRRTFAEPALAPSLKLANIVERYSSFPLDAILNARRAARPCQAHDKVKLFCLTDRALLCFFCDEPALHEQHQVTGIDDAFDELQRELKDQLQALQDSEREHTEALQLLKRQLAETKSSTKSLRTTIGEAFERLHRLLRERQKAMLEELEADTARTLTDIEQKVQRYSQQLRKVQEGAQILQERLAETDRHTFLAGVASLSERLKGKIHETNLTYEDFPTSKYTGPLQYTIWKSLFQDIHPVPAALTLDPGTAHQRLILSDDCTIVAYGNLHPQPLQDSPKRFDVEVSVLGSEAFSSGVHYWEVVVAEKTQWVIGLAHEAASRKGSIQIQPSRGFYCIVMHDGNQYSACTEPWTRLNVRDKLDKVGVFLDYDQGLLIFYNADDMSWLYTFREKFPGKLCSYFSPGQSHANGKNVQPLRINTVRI

Tests used:
Experiment in all cases: co-IP
[1] = molecular target: T1, GFP-tagged Strumpellin (UniProt Q12768)
T1 sequence: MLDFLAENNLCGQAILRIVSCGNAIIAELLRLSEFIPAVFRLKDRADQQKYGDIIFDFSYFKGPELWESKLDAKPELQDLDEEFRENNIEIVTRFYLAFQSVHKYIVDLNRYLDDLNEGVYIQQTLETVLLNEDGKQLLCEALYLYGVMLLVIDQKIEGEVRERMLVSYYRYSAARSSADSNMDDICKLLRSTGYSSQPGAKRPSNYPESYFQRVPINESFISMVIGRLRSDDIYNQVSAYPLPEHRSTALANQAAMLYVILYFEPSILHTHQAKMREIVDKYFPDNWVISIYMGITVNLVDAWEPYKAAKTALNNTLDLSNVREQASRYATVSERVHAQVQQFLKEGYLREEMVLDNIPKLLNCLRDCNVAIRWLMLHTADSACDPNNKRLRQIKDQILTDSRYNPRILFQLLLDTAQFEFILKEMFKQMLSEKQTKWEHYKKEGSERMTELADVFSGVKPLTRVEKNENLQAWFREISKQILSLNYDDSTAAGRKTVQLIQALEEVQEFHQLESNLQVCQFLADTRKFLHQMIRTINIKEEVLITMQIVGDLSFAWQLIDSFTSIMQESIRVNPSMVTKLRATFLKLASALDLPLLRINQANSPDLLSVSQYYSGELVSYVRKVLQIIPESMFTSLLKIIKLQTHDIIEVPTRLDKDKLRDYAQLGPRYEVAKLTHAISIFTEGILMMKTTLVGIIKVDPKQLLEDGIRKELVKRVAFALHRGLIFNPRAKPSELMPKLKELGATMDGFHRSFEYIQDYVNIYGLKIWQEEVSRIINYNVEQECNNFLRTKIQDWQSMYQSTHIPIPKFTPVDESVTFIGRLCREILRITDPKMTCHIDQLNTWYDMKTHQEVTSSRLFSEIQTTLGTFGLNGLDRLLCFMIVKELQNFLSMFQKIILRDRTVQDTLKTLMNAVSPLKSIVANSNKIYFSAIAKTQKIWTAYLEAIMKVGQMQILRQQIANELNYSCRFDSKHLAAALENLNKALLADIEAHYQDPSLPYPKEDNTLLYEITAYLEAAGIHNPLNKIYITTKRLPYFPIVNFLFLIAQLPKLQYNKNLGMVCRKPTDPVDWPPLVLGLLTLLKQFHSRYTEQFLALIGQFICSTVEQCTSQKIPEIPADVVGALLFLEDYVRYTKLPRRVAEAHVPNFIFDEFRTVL

[2] = molecular target: T2, GFP-tagged SWIP (UniProt Q2M389)
T2 sequence: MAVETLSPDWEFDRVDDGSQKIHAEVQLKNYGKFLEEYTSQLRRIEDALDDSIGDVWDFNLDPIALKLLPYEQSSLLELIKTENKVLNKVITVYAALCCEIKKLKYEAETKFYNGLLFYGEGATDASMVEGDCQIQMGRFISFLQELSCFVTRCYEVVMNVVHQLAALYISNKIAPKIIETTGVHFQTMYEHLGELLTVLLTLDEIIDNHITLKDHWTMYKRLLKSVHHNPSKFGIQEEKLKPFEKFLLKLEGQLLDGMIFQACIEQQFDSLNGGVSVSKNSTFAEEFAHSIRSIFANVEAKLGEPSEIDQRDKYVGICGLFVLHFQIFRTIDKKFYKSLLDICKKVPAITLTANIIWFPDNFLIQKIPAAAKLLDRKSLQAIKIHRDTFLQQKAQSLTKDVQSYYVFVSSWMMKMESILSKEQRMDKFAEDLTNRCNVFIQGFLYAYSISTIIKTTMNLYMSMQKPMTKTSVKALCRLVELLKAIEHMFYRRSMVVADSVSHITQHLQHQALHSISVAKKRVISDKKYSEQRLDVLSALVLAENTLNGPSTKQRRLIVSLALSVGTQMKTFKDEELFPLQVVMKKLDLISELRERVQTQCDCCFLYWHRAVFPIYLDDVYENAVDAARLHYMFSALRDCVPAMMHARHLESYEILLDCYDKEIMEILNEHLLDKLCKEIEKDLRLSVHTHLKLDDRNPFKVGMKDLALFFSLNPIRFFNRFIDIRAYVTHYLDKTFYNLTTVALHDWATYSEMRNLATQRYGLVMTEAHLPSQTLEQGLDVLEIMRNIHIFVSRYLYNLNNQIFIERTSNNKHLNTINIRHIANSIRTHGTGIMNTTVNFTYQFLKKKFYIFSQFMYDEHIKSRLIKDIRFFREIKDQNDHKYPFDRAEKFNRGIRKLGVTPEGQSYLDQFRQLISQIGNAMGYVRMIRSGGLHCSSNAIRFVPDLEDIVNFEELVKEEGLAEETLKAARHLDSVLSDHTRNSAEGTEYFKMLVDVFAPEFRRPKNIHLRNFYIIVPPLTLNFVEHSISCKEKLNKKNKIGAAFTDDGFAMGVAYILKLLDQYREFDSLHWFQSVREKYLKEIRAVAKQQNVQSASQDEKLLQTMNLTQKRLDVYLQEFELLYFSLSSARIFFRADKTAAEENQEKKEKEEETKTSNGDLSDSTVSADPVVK

[3] = molecular target: T3, GFP-WASH1 (UniProt A8K0Z3)
T3 sequence: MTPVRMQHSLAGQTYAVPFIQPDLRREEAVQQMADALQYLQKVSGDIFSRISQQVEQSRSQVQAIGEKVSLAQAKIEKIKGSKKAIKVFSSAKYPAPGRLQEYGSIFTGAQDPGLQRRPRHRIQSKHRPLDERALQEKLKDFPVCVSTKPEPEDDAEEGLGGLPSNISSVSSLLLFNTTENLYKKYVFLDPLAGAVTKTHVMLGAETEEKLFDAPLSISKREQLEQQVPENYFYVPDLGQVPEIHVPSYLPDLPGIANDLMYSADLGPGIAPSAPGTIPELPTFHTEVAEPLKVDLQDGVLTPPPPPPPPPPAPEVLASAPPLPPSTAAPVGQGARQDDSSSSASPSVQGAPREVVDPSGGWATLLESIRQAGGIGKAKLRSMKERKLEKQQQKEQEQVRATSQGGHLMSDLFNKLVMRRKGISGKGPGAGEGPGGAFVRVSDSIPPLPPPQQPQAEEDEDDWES

[4] = molecular target: T4, GFP-tagged CCDC53 (UniProt Q9Y3C0)
T4 sequence: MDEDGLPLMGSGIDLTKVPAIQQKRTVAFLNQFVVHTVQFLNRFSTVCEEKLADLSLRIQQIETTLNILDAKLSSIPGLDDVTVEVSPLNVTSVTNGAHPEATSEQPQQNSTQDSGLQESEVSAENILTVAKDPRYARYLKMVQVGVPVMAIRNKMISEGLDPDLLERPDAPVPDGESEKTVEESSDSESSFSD

binding [1]: binds | binding [2]: binds | binding [3]: binds | binding [4]: binds
Substance: TRIM62-Myc (from UniProt Q9BVG3 1-475)
